# Measurements taken from paper PMC4140647.
# Sequences of proteins named here, by UniProt entry; tags and fusion partners are left off. A change or cut given only in a name is not applied to a line headed by its entry.
# UniProt Q9ZUI4: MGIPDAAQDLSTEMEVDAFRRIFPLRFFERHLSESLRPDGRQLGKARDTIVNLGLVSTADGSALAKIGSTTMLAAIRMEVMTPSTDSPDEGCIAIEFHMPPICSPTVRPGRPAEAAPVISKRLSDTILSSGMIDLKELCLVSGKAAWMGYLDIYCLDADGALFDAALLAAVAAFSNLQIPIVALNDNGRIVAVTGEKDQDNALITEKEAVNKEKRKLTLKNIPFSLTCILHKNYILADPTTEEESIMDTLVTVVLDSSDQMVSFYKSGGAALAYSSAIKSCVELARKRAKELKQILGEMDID
# UniProt F4JLJ9: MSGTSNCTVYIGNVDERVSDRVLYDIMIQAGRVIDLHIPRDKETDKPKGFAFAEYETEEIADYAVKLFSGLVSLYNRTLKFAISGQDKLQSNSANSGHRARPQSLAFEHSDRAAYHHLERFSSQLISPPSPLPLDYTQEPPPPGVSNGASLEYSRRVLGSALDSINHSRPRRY
# UniProt F4KBK4: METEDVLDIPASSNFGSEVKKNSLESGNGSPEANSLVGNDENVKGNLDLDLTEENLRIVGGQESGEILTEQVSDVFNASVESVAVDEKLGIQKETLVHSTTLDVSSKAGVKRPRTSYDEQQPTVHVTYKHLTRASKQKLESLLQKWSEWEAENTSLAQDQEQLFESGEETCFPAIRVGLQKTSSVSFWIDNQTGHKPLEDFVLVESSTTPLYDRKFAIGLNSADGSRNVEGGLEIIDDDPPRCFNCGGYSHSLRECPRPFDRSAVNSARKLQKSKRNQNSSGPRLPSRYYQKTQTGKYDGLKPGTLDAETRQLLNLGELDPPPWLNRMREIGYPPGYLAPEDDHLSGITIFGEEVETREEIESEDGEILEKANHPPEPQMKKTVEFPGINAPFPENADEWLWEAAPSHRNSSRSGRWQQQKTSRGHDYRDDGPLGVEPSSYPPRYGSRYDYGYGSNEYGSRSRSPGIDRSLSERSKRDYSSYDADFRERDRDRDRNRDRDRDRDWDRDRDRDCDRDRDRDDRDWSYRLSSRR
# UniProt F4JFM9: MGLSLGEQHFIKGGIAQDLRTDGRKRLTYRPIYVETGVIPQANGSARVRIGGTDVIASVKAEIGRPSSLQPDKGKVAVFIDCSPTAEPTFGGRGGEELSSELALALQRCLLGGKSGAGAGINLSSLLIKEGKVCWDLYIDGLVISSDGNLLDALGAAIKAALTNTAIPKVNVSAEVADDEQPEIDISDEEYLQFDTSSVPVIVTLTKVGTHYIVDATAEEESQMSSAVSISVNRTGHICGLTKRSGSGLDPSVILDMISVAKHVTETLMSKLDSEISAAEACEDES
# No constants are given. Whether binding was seen depends on the method and setting. In cells and extracts the contact can be indirect. These calls come from enrichment with a bait or labelling near it, and not all partners need be listed. For some assays here: A no says only that the protein was not detected with the bait. Where a sequence is shown, tags or fusion partners need not be part of it.
# T1: HEN2-GFP (Arabidopsis thaliana) (UniProt Q9ZVW2)
# T1 sequence: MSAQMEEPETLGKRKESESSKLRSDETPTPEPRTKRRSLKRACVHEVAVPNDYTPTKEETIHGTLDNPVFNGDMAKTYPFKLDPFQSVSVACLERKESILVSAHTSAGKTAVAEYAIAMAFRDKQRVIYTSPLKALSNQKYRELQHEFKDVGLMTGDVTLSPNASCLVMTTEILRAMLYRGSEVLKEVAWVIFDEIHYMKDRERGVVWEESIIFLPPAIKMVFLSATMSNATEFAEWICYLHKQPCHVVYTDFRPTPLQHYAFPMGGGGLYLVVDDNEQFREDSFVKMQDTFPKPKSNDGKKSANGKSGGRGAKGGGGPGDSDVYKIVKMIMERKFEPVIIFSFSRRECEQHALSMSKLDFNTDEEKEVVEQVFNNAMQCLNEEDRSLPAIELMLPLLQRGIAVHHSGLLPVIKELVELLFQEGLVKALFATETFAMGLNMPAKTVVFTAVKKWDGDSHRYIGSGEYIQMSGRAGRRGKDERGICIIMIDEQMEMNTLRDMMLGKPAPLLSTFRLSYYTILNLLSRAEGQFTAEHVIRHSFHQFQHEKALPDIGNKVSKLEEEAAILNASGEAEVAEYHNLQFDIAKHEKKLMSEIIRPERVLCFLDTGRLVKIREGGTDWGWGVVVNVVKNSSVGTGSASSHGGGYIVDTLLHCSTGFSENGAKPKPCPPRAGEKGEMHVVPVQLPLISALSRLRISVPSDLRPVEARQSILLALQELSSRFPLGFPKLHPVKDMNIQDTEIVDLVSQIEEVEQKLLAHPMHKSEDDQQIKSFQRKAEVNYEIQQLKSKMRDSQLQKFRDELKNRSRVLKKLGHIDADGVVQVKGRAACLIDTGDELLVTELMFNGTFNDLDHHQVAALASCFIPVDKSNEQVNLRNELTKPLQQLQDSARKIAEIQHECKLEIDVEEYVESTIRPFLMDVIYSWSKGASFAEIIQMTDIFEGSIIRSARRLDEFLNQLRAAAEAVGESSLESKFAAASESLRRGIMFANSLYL
# T2: AtMTR4-GFP (Arabidopsis thaliana) (UniProt Q9XIF2)
# T2 sequence: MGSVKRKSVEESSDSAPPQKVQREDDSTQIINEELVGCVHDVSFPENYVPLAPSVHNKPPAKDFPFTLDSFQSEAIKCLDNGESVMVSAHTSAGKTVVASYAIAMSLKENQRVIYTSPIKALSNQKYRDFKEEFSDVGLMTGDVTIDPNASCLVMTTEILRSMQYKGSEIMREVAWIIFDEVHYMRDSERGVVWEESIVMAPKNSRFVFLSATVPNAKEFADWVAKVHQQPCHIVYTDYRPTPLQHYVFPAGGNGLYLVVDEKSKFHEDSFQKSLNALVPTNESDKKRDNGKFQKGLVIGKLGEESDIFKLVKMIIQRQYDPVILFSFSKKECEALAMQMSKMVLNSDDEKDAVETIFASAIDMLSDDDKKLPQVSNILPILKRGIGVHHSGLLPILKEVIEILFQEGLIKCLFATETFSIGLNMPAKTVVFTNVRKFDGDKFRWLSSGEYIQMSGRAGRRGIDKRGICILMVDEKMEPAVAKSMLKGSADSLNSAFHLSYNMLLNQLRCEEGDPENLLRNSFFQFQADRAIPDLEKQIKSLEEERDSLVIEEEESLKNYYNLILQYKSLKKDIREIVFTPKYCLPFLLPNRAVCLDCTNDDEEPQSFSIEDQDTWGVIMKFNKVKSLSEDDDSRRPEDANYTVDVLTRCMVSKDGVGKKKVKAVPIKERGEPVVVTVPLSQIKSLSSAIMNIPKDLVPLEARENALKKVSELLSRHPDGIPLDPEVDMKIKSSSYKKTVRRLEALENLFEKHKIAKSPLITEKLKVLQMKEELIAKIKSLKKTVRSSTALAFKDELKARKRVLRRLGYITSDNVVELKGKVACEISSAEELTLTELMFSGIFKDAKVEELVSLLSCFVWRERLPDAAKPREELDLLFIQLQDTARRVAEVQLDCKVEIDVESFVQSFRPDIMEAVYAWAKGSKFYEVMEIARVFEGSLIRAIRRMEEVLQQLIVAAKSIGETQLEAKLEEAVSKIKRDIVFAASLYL
# Tests used:
# [1] = target: T1, HEN2-GFP (Arabidopsis thaliana); experiment: affinity purification with mass spectrometry; HEN2-GFP (hen2 background) extracted from flowers, held on anti-GFP magnetic microparticles (MACS), 150 mM NaCl; LC-MS/MS; duplicates crossed, proteins of mock IPs excluded
# [2] = target: T2, AtMTR4-GFP (Arabidopsis thaliana); experiment: affinity purification with mass spectrometry; AtMTR4-GFP (own promoter, mtr4 background) extracted from flowers, held on anti-GFP magnetic microparticles (MACS), SDS omitted from washing buffers; LC-MS/MS; triplicates crossed, proteins of mock IPs excluded
# [3] = target: T1, HEN2-GFP (Arabidopsis thaliana); experiment: affinity purification with mass spectrometry; HEN2-GFP (hen2 background) extracted from flowers, held on anti-GFP magnetic microparticles (MACS), 50 mM NaCl; LC-MS/MS; duplicates crossed, proteins of mock IPs excluded
# [4] = target: T1, HEN2-GFP (Arabidopsis thaliana); experiment: affinity purification with mass spectrometry; HEN2-GFP (hen2 background) extracted from flowers, held on anti-GFP magnetic microparticles (MACS), 150 mM NaCl; LC-MS/MS; duplicates crossed, proteins of mock IPs excluded; remark: listed apart in the source
Molecule,binding [1],binding [2],binding [3],binding [4]
CSL4,no binding (only 150 mM NaCl),binds,binds,–
RRP43 (from UniProt Q9ZUI4),no binding (only 150 mM NaCl),binds,binds,–
RBM7 homologue (AT4G10110) (from UniProt F4JLJ9),binds,–,binds,–
ZCCHC8 homologue (AT1G67210),binds,–,binds,–
RRP40,no binding (only 150 mM NaCl),binds,binds,–
ZCCHC8 homologue (AT5G38600) (from UniProt F4KBK4),binds,–,binds,–
RRP42 (from UniProt F4JFM9),no binding (only 150 mM NaCl),binds,binds,–
"RRP41 (protein, UniProt Q9SP08 1-241) MEYVNPEGLRLDGRRFNEMRQIVAEVGVVSKADGSAVFEMGNTKVIAAVYGPREIQNKSQQKKNDHAVVLCEYSMAQFSTGDRRRQKFDRRSTELSLVIRQTMEACILTELMPHSQIDIFLQVLQADGGTRSACINAATLALADAGIPMRDLAVSCSAGYLNSTPLLDLNYVEDSAGGADVTVGILPKLDKVSLLQMDAKLPMETFETVFALASEGCKAIAERIREVLQENTKQLEYRRAA",–,binds,binds,no binding (only 150 mM NaCl)
"MTR3 (protein, UniProt A2RVK7 1-256) MAAKPGAATPTYSPKIVGRSRLPIFKDSDLDWSRPDGRGFHQCRPALLQTGAVSSASGSAYAEFGNTKVIVSVFGPRESKKAMVYSDVGRLNCNVSYTNFASPTLGQGTDHKEYSSMLHKALEGVIMMETFPKTTVDVFALVLESGGSDLSVLISCASLALADAGIMMYDLITAVSVSCIGKSLMIDPVTEEEGCEDGSFMMTCMPSRYEITQLTITGEWTTPNINEAMQLCLDASSKLGEIMRDCLKQSASASDE",–,binds,binds,no binding (only 150 mM NaCl)
"RRP4 (protein, UniProt Q9ZVT7 1-322) MVMRKLQLPLSQTQKVRFERAIERLQSLSSSANSDASVIVTDSIPVNHDDAFLKGHGTSEVDGELLATVCGVVERVDKLVYVRTLRARYKPEVGDIVVGRVIEVAQKRWRVELNFNQDGVLMLSSMNMPDGIQRRRTSVDELNMRNIFVEHDVVCAEVRNFQHDGSLQLQARSQKYGKLEKGQLLKVDPYLVKRSKHHFHYVESLGIDLIIGCNGFIWVGEHVEVRDPMAIDDQKDEEMISSSSTGKEQSHIPLETRQTICRIGNAIRVLSNLGFTVTLEVIMETVNLSNSKNIDIHDMLGSEFHVVVAENEAERRRTKRKK",–,binds,binds,no binding (only 150 mM NaCl)
"RRP46 (protein, UniProt Q9LX74 1-239) MEIDREDGRTPNQLRPLACSRNILHRPHGSASWSQGDTKVLAAVYGPKAGTKKNENAEKACFEVIWKPKSGQIGKVEKEYEMILKRTIQSICVLTVNPNTTTSVIIQVVHDDGSLLPCAINAACAALVDAGIPMKHLAVAICCCLAENGYLVLDPNKLEEKKMTAFAYLVFPNTTLSVLPEGSSVAEGEPVEHGIITSITHGVMSVDDYFLCVENGRAATASLSAFFRKNFQQSSSKAG",–,binds,binds,no binding (only 150 mM NaCl)
"CBP20 (protein, UniProt Q9XFD1 1-257) MASLFKEQAKLSAYRDRRFSGTQEEFDEALRASTTVYIGNVSFYTTEEQLYELFSRAGEIKKIIMGLDKNTKTPCGFCFVLFYSREDTEDAVKYISGTILDDRPIRVDFDWGFQEGRQWGRGRSGGQVRDEYRTDYDPARGGYGKLVQKELEAQRQLVDYGTGSLGAYPQAAPTNYGNGRRGGGNYGQGGQNRHGRGDYHRKRQRDDDRYGRDNSRRNTDHESRRDTDSDMRPEKNPRFRESGDSDDDGEDDRKRRS",–,–,binds,–
"MAGO (protein, UniProt O23676 1-150) MAAEEATEFYLRYYVGHKGKFGHEFLEFEFREDGKLRYANNSNYKNDTIIRKEVFLTPAVLKECKRIVSESEILKEDDNNWPEPDRVGKQELEIVLGNEHISFATSKIGSLVDCQSSNDPEGLRIFYYLVQDLKCLVFSLISLHFKIKPI",–,–,binds,–
